# Reference: PMC7055313
# By UniProt entry, the sequences of proteins in these tests, tags left out.
# UniProt Q14974: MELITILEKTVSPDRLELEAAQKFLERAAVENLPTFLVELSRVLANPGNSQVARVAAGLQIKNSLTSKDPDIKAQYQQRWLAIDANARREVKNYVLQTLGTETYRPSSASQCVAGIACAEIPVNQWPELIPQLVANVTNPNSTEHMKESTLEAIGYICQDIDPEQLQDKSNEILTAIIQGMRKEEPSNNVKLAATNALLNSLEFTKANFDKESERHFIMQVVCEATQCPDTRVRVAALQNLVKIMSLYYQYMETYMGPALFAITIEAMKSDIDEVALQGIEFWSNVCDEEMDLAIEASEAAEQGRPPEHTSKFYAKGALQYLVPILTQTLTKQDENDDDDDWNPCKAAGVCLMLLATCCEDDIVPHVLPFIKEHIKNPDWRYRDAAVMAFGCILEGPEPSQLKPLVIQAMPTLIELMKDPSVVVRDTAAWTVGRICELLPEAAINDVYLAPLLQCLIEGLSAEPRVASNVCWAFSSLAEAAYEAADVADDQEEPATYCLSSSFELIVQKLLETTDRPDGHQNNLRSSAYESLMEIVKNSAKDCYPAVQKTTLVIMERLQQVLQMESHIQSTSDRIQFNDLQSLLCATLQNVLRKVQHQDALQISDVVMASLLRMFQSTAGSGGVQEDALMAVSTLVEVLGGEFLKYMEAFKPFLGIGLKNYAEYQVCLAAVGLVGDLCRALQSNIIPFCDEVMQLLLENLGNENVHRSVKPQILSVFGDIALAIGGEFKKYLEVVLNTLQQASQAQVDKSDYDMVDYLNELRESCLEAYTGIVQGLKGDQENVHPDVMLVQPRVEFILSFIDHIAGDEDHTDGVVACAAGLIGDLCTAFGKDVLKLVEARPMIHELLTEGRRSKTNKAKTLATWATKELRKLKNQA
# UniProt Q96SW2: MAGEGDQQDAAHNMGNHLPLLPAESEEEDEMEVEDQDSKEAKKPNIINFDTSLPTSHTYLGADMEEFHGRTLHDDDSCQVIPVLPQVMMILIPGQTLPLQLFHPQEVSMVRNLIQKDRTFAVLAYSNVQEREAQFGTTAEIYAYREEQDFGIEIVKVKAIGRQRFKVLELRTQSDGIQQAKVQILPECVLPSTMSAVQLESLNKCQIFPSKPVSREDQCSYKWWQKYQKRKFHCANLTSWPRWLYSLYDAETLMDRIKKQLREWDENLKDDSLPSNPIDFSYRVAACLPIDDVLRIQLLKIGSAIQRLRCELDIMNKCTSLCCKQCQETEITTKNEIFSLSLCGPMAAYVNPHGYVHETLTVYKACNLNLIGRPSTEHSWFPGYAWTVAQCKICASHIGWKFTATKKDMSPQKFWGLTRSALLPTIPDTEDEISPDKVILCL
# UniProt Q13619: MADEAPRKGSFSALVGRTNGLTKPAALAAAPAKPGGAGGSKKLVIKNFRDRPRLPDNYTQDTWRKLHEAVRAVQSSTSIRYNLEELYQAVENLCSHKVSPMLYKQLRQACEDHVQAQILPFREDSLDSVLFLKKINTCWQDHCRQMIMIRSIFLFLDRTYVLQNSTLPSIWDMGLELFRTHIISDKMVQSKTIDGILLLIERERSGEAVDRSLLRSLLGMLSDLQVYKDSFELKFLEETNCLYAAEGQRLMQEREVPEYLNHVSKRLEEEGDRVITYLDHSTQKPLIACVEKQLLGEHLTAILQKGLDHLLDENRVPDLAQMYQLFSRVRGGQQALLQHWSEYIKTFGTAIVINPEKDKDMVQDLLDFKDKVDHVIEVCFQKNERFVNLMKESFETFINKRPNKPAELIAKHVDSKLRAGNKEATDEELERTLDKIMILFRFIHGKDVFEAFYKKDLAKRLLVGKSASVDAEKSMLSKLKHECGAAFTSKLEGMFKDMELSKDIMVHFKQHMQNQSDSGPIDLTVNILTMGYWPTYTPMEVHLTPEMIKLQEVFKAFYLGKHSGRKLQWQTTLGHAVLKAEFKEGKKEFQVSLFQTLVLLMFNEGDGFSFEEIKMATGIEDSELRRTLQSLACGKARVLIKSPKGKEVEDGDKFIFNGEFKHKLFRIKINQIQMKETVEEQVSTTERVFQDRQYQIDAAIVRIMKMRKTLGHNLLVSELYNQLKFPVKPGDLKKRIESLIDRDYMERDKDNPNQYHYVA
# These are yes or no findings as the source states them, for the method shown. Binding seen in cells or lysates may run through a third protein. Some entries that bind do so weakly or less than the wild type.
# Molecular target: GST-tagged karyopherin beta 1 (KPNB1) (UniProt Q14974)
# Test: pull-down; Control GST or GST-KPNB1 coupled to glutathione beads, incubated with lysates of High Five insect cells overproducing individual CRL4^CRBN subunits; input (10%) and bound proteins analysed by immunoblot; only the target purified
row,binding,Substance
1,binds,CRBN overproduced in High Five insect cells (from UniProt Q96SW2 1-442)
2,binds,CUL4A overproduced in High Five insect cells (from UniProt Q13619 1-759)
